Laboratory results published in PubChem BioAssay AID2685 (National Center for Advancing Translational Sciences (NCATS), 2010).
The other results are listed elsewhere or left out. Further columns of the screen follow, without active or inactive calls. Compounds called inactive in the main read-out are mostly missing here. Words in brackets tell the shape of the fitted curve; partial curves, single points and poor fits give uncertain potencies.

Assay: qHTS Assay for Lipid Storage Modulators in Drosophila S3 Cells;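 as to cell number change: cells counted by Cell Tracker Red CMTPX staining in the red channel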
Details: BODIPY lipid droplet fluorescence, 18-24 h; for cell number change: measured here: cell count max response, cells fed with added oleic acid
Summary of the method: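 Drosophila S3 cells loaded with oleic acid (400 uM, as added) and compounds at several concentrations; lipid droplets imaged by 488-nm laser-scanning cytometry, 500–530 nm intensity and object ratio to cell channel. Percent activity normalized to 20 uM Triacsin C.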

[1] = measured here: cell number channel AC50, cells fed with added oleic acid
[2] = measured here: lipid fluorescence (Fed channel) AC50, cells fed with added oleic acid

Compound	cell number change	AC50 [1]	AC50 [2]
COc1cc2c(cc1OC)CN(C(=O)c1ccc(S(=O)(=O)N3CCCCCC3)cc1)CC2	36.1%	32.6 µM [rising, single point]	
CCOc1cc(C(=O)NCc2ccco2)cc(OCC)c1OCC	-0.351%		
CCOC(=O)N1CCN(Cc2nc3cc(NC(C)=O)ccc3n2CC)CC1	-3.55%	0.00461 µM [falling, full curve, poor fit]	
COc1ccc(N2Cc3ccccc3/C2=N\C(=O)Nc2ccccc2)cc1	69%	29.1 µM [rising, single point]	
CN(C)S(=O)(=O)c1ccc(C(=O)OCc2ccc([N+](=O)[O-])cc2)cc1	-108%		
CCN(CC)S(=O)(=O)c1ccc2c(c1)nc(CCC(=O)OCC(=O)Nc1cc(OC)cc(OC)c1)n2C		0.82 µM [rising, full curve]	1.46 µM [rising, partial curve]
CCc1ccc(-c2cc(C)no2)cc1S(=O)(=O)N1CCN(c2ccccn2)CC1	8.02%	6.51 µM [rising, single point]	
CC(C)c1cc(C(=O)O)n(-c2ccccc2)n1	23.1%		6.51 µM [falling, single point]
CC1=CC(C)(C)Nc2ccc(OC(=O)CN3C(=O)C4CCCCC4C3=O)cc21 (stereo not drawn)	59.3%		0.651 µM [falling, partial curve, poor fit]
CCn1c(COc2ccccc2)nnc1SCC(=O)Nc1ccc2c(c1)OCCO2	-75.5%	13 µM [falling, partial curve]	6.51 µM [falling, partial curve]
O=C(CSCc1ccc(Cl)cc1Cl)Nc1nccs1	2.72%	2.06 µM [rising, partial curve]	2.91 µM [rising, partial curve]
Cc1ccccc1CN1C[C@@H]2C[C@@H](c3cn(C)nc3-c3ccccc3)N3CCC[C@@]23C1=O	-37.6%	29.1 µM [falling, single point]	32.6 µM [falling, single point]
O=C(CCC(=O)N1CCN(c2ccc(C(F)(F)F)cn2)CC1)c1cccs1	13.7%		6.51 µM [rising, single point]
COC(=O)c1ccc(N2C(=O)CC(N3CCC(O)(c4ccc(Br)cc4)CC3)C2=O)cc1 (stereo not drawn)	23.3%		
COc1ccc(CCNC(=O)c2nnn(-c3cccc(C)c3)c2N)cc1OC	48.2%	2.59 µM [rising, full curve]	
CCN(c1ccccc1)S(=O)(=O)c1ccc(C(=O)Nc2nccs2)cc1	83.9%	20.6 µM [rising, single point]	29.1 µM [rising, single point]

Individual results from above:
Cc1ccccc1CN1C[C@@H]2C[C@@H](c3cn(C)nc3-c3ccccc3)N3CCC[C@@]23C1=O – AC50 [2]: 32.6 µM [falling, single point]
O=C(CCC(=O)N1CCN(c2ccc(C(F)(F)F)cn2)CC1)c1cccs1 – cell number change: 13.7%
